The data set deals with L1210 cells. Put plainly: Summation of intracellular analogue and polyamine amine equivalence. The data set is classed as cell-based, murine. The note with it: 48 hours.

Structures are written as SMILES. Counter-ions that a name gives are not always drawn.

Take `CCNCCCCCNCCCCNCC` [DE(4,5), 3,8,14-Triazahexadecane Trihydrochloride]: where the note is “L1210, 15 μM”, the “Picoequivalents of Amine/10^6 cells (× 10^3)” value (“Picoequivalents” for short) is reported as 14.59 picoequivalents/10^6 cells (×.

As to `CCNCCCCCNCCCCCNCC` [DE(5,5), 3,9,15-Triazaheptadecane Trihydrochloride], the “Picoequivalents” value (L1210, 75 μM) is given as 9.01 picoequivalents/10^6 cells (×.

On to `CCNCCCCNCCCCNCC` [DEHSPD, N^1,N^9-Diethylhomospermidine Trihydrochloride], for which the “Picoequivalents” value (L1210, 125 μM) is on record as 16.92 picoequivalents/10^6 cells (×.

For `CCNCCCNCCCNCC` [DENSPD, N^1,N^7-Diethylnorspermidine Trihydrochloride], the “Picoequivalents” value (L1210, 500 μM) is given as 13.70 picoequivalents/10^6 cells (×.

With `CCNCCCCNCCCNCC` [DESPD, N^1,N^8-Diethylspermidine Trihydrochloride], the “Picoequivalents” value (L1210, 500 μM) is 14.05 picoequivalents/10^6 cells (×.

Turning to `CNCCCCCNCCCCNC` [DM(4,5), 2,7,13-Triazatetradecane Trihydrochloride], the “Picoequivalents” value (L1210, 10 μM) is recorded as 20.81 picoequivalents/10^6 cells (×.

As for `CNCCCCCNCCCCCNC` [DM(5,5), 2,8,14-Triazapentadecane Trihydrochloride], the “Picoequivalents” value (L1210, 75 μM) was 15.5 picoequivalents/10^6 cells (×.

Turning to `CNCCCCNCCCCNC` [DMHSPD, N^1,N^9-Dimethylhomospermidine Trihydrochloride], for the setting “L1210, 500 μM”, the “Picoequivalents” value is listed as 20.34 picoequivalents/10^6 cells (×.

For `CNCCCNCCCNC` [DMNSPD, N^1,N^7-Dimethylnorspermidine Trihydrochloride], the “Picoequivalents” value (L1210, 500 μM) is on record as 18.40 picoequivalents/10^6 cells (×.

For `CNCCCCNCCCNC` [DMSPD, N^1,N^8-Dimethylspermidine Trihydrochloride], the “Picoequivalents” value (L1210, 500 μM) is listed as 16.09 picoequivalents/10^6 cells (×.

As for `CCCNCCCCCNCCCCNCCC` [DP(4,5), 4,9,15-Triazaoctadecane Trihydrochloride], the “Picoequivalents” value (L1210, 500 μM) is listed as 15.15 picoequivalents/10^6 cells (×.

For the molecule `CCCNCCCCCNCCCCCNCCC` [DP(5,5), 4,10,16-Triazanonadecane Trihydrochloride], the “Picoequivalents” value (L1210, 500 μM) is given as 13.91 picoequivalents/10^6 cells (×.

For the molecule `CCCNCCCCNCCCCNCCC` [DPHSPD, N^1,N^9-Dipropylhomospermidine Trihydrochloride], under “L1210, 500 μM”, the “Picoequivalents” value was 15.99 picoequivalents/10^6 cells (×.

Turning to `CCCNCCCNCCCNCCC` [DPNSPD, N^1,N^7-Dipropylnorspermidine Trihydrochloride], the “Picoequivalents” value (L1210, 500 μM) is reported as 15.01 picoequivalents/10^6 cells (×.

Regarding `CCCNCCCCNCCCNCCC` [DPSPD, N^1,N^8-Dipropylspermidine Trihydrochloride], where the note is “L1210, 500 μM”, the “Picoequivalents” value is reported as 15.33 picoequivalents/10^6 cells (×.

As to `CCNCCCNCCCCN` [MESPD(N1), N^1-Ethylspermidine Trihydrochloride], the “Picoequivalents” value (L1210, 500 μM) is 16.99 picoequivalents/10^6 cells (×.

In the case of `CCNCCCCNCCCN` [MESPD(N8), N^8-Ethylspermidine Trihydrochloride], under “L1210, 500 μM”, the “Picoequivalents” value is reported as 17.99 picoequivalents/10^6 cells (×.

On to `CCCNCCCCNCCCCN` [MPHSPD, N^1-Propylhomospermidine Trihydrochloride], for which, under “L1210, 500 μM”, the “Picoequivalents” value is 20.55 picoequivalents/10^6 cells (×.

`CCCNCCCNCCCN` [MPNSPD, N^1-Propylnorspermidine Trihydrochloride]: the “Picoequivalents” value (L1210, 500 μM) is recorded as 17.71 picoequivalents/10^6 cells (×.

For `CCCNCCCNCCCCN` [MPSPD(N1), N^1-Propylspermidine Trihydrochloride], for the setting “L1210, 500 μM”, the “Picoequivalents” value is given as 18.25 picoequivalents/10^6 cells (×.

With `CCCNCCCCNCCCN` [MPSPD(N8), N^8-Propylspermidine Trihydrochloride], where the note is “L1210, 500 μM”, the “Picoequivalents” value is reported as 19.59 picoequivalents/10^6 cells (×.

The values are drawn from patent publication US20020045780A1, “Biologically active spermidine analogues, pharmaceutical compositions and methods of treatment” (priority 1997, published 2002).
